Laboratory results from PMC6453957, “Specific inhibition of splicing factor activity by decoy RNA oligonucleotides”.
These are yes or no findings as the source states them, for the method shown. In cells and extracts the contact can be indirect. Some binding calls cover weakened binding; strength is not graded here. Sequences can lack the tags named with a protein.

Target: T1, Flag-RBFOX2 (UniProt O43251)
T1 sequence: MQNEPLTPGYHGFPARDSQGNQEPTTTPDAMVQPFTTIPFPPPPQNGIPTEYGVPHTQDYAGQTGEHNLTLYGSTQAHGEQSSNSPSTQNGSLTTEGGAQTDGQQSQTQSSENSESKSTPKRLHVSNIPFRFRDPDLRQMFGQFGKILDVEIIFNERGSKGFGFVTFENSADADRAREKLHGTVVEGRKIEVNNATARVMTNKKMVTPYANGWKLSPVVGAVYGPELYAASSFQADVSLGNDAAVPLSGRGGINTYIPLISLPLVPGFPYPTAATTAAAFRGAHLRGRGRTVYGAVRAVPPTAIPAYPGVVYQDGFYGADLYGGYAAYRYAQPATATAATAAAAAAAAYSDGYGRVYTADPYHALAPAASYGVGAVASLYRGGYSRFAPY
Assay: co-IP; anti-Flag antibody on protein G-sepharose, overnight with nuclear extract of HEK293 cells transfected with pCDNA3-Flag-RBFOX2 and then with RBFOXi or SCRM oligonucleotide; four washes with nuclear extract buffer; immunoblot

B1: hnRNP M (protein, UniProt P52272 1-730)
chain: MAAGVEAAAEVAATEIKMEEESGAPGVPSGNGAPGPKGEGERPAQNEKRKEKNIKRGGNRFEPYANPTKRYRAFITNIPFDVKWQSLKDLVKEKVGEVTYVELLMDAEGKSRGCAVVEFKMEESMKKAAEVLNKHSLSGRPLKVKEDPDGEHARRAMQKVMATTGGMGMGPGGPGMITIPPSILNNPNIPNEIIHALQAGRLGSTVFVANLDYKVGWKKLKEVFSMAGVVVRADILEDKDGKSRGIGTVTFEQSIEAVQAISMFNGQLLFDRPMHVKMDERALPKGDFFPPERPQQLPHGLGGIGMGLGPGGQPIDANHLNKGIGMGNIGPAGMGMEGIGFGINKMGGMEGPFGGGMENMGRFGSGMNMGRINEILSNALKRGEIIAKQGGGGGGGSVPGIERMGPGIDRLGGAGMERMGAGLGHGMDRVGSEIERMGLVMDRMGSVERMGSGIERMGPLGLDHMASSIERMGQTMERIGSGVERMGAGMGFGLERMAAPIDRVGQTIERMGSGVERMGPAIERMGLSMERMVPAGMGAGLERMGPVMDRMATGLERMGANNLERMGLERMGANSLERMGLERMGANSLERMGPAMGPALGAGIERMGLAMGGGGGASFDRAIEMERGNFGGSFAGSFGGAGGHAPGVARKACQIFVRNLPFDFTWKMLKDKFNECGHVLYADIKMENGKSKGCGVVKFESPEVAERACRMMNGMKLSGREIDVRIDRNA
**Q.** With B1 as the binder, how does the binding read?
**A.** The binding was “binds”.
